Patent US12428663B2, “Identification of DNA polymerase theta inactivation mechanism” (The Johns Hopkins University, priority 2018, dated 2025)

Assays:
Test in all cases: activity assay
[1] = molecular target: T1, DNA polymerase theta catalytic core (98 kDa fragment) (Homo sapiens) (UniProt O75417); conditions: kcat/Km dA incorporation, Mg2+, 25 C; Km dATP 5 uM; wt value attributed to ref 28; purified recombinant protein; label: 5'-32P primer
T1 sequence (looked up): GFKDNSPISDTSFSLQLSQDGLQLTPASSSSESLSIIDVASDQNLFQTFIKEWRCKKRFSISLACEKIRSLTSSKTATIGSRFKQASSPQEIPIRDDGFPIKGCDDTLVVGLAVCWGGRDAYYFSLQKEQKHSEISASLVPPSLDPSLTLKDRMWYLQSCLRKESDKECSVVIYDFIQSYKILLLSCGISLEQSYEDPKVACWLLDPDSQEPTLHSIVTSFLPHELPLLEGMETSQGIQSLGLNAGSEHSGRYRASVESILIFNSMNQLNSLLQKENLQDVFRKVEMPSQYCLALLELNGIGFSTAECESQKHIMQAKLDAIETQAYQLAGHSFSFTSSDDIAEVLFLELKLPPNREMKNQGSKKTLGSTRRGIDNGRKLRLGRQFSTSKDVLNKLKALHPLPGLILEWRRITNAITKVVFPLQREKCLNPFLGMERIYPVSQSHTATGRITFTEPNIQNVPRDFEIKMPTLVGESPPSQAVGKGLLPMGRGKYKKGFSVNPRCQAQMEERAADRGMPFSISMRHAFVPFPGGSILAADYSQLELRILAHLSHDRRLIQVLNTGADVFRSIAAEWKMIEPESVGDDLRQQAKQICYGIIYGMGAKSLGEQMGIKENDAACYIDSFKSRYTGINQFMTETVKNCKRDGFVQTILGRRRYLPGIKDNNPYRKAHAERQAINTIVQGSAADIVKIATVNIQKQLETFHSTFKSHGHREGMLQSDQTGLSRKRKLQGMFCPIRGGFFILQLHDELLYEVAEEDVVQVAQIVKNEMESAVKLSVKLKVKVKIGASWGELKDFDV

[2] = molecular target: T2, DNA polymerase theta catalytic core K2383A (Homo sapiens) (UniProt O75417); conditions: kcat/Km dA incorporation, Mg2+, 25 C; Km dATP 1094 uM; purified recombinant protein; label: 5'-32P primer
T2 sequence (looked up): T1 sequence (looked up) with K592A

[3] = molecular target: T3, DNA polymerase theta catalytic core K2383R (Homo sapiens) (UniProt O75417); conditions: kcat/Km dA incorporation, Mg2+, 25 C; Km dATP 311 uM; purified recombinant protein; label: 5'-32P primer
T3 sequence (looked up): T1 sequence (looked up) with K592R

AGCTGCAGGTCCTA / AGGCCTCACATGCATTTAGGACCTGCAGCT [primer-template 5]
activity on this sequence [1]: 13.6 µM/min
activity on this sequence [2]: 0.00048 µM/min
activity on this sequence [3]: 0.0043 µM/min

Changes are numbered by the printed parent chain. The exact form of at least one protein or probe is not confirmed. Tags and fusion partners may be left off the protein sequences shown.
